Test results taken from publication PMC7206007.
No constants are given. Whether binding was seen depends on the method and setting. For some assays here: In cells and extracts the contact can be indirect. Some binding calls cover weakened binding; strength is not graded here. One block for each substance: values may come before it.

Chains of the proteins cited; added tags and fusions are not shown. Lines headed by an entry give the natural chain unless they say otherwise; changes in a name come on top.
UniProt O96017: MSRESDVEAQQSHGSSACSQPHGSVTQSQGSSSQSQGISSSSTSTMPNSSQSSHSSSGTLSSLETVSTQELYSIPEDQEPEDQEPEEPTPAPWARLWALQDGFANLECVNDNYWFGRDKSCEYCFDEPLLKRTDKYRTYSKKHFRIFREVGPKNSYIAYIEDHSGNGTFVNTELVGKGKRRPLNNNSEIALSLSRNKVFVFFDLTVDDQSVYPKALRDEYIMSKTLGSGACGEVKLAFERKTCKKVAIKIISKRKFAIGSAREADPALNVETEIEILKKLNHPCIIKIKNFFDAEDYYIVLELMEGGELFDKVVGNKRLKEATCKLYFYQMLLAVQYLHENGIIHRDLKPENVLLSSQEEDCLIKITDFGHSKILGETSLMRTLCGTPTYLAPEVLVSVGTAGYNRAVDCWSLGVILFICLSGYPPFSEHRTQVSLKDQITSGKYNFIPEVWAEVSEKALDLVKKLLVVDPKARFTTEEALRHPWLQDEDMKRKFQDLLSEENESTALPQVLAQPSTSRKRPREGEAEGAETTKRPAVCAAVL
UniProt Q96EB6: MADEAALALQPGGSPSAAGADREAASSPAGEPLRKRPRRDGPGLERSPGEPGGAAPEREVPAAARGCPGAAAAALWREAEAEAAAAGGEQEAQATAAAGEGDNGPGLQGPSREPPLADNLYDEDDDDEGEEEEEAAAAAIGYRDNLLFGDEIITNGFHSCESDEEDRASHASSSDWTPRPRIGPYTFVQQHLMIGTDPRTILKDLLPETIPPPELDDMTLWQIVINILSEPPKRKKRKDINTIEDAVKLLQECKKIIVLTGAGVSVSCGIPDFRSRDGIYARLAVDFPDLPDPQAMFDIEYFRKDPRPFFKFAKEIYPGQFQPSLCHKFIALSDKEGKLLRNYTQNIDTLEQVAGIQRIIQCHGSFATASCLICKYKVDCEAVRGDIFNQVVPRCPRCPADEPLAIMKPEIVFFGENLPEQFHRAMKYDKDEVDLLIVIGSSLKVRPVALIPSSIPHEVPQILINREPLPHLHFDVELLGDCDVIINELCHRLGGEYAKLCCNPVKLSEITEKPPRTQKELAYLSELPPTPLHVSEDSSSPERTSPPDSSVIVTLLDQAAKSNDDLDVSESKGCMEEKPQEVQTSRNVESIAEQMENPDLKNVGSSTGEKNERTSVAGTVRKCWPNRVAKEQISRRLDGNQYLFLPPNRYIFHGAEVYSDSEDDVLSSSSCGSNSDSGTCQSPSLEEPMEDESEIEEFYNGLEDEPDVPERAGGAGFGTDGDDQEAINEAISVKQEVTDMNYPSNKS
UniProt Q9Z265: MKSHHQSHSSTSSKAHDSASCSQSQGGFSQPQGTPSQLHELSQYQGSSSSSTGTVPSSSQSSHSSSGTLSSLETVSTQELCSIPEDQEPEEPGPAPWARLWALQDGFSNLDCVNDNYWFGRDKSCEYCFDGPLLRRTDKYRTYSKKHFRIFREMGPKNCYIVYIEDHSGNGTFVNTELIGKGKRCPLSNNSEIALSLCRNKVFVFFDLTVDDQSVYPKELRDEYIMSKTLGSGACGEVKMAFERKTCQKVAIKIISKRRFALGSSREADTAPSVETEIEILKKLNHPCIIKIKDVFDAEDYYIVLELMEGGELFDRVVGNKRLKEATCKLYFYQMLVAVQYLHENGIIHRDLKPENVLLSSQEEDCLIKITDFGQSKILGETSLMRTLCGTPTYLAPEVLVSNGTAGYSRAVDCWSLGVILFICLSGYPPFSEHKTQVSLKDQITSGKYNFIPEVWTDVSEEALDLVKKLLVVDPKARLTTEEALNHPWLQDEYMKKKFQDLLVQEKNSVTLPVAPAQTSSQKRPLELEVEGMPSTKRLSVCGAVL
UniProt Q09472: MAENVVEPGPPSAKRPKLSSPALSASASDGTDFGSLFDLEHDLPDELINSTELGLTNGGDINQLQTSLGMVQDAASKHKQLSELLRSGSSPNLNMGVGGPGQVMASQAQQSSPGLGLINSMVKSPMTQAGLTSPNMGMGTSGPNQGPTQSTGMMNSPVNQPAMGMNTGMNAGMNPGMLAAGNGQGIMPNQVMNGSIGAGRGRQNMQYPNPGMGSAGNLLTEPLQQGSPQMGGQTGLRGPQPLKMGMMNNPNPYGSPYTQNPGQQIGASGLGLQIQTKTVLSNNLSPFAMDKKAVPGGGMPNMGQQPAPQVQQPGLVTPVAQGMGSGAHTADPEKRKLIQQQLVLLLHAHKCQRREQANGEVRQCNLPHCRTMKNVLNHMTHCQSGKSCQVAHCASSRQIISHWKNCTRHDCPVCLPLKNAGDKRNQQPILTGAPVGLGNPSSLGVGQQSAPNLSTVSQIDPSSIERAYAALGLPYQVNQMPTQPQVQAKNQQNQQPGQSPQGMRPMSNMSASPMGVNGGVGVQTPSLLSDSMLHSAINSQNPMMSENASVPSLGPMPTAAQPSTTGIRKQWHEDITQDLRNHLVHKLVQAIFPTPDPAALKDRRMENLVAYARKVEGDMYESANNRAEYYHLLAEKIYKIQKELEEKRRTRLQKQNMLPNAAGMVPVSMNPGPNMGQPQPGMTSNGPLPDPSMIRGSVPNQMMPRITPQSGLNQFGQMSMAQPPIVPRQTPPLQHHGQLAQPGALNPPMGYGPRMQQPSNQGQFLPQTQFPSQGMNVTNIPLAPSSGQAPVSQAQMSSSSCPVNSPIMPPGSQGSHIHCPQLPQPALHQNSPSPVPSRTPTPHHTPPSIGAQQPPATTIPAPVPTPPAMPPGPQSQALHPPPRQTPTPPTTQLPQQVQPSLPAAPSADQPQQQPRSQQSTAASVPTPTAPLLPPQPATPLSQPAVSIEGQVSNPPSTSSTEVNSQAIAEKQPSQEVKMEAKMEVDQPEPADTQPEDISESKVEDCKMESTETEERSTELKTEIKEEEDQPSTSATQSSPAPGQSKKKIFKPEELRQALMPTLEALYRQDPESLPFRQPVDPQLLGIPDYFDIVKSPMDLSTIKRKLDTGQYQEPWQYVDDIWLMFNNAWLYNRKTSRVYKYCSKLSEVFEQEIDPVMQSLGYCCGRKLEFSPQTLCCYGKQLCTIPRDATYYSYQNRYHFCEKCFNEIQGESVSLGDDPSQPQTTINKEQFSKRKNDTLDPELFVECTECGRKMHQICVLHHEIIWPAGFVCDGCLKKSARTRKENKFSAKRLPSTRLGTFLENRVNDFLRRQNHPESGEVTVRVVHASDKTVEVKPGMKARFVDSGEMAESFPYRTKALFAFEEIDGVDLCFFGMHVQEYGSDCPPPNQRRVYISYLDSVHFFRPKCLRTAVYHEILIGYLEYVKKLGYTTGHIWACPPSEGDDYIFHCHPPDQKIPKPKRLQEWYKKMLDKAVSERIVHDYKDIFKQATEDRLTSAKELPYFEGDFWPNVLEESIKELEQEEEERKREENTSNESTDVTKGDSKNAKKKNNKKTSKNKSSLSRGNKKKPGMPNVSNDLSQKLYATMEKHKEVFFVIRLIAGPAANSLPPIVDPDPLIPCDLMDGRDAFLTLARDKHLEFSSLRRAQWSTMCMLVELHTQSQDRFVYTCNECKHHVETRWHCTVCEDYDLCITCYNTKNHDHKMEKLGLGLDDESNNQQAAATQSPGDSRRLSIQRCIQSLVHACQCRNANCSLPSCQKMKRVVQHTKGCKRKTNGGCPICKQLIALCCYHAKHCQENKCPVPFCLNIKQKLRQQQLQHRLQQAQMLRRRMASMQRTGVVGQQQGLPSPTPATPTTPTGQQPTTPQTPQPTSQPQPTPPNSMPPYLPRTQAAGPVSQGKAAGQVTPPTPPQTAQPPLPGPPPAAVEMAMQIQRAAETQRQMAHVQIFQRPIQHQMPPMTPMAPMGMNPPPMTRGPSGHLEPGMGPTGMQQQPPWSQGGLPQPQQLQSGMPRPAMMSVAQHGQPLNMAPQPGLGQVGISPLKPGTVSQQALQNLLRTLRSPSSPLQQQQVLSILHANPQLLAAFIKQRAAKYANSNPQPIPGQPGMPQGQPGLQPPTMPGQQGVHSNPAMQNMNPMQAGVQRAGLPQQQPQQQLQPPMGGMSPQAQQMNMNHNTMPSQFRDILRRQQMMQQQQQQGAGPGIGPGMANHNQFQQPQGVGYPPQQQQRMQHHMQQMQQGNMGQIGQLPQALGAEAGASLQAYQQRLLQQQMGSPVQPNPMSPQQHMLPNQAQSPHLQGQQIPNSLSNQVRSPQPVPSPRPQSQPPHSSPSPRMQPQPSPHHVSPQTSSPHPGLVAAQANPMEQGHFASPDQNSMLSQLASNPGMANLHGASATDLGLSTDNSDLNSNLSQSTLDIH
UniProt Q92831: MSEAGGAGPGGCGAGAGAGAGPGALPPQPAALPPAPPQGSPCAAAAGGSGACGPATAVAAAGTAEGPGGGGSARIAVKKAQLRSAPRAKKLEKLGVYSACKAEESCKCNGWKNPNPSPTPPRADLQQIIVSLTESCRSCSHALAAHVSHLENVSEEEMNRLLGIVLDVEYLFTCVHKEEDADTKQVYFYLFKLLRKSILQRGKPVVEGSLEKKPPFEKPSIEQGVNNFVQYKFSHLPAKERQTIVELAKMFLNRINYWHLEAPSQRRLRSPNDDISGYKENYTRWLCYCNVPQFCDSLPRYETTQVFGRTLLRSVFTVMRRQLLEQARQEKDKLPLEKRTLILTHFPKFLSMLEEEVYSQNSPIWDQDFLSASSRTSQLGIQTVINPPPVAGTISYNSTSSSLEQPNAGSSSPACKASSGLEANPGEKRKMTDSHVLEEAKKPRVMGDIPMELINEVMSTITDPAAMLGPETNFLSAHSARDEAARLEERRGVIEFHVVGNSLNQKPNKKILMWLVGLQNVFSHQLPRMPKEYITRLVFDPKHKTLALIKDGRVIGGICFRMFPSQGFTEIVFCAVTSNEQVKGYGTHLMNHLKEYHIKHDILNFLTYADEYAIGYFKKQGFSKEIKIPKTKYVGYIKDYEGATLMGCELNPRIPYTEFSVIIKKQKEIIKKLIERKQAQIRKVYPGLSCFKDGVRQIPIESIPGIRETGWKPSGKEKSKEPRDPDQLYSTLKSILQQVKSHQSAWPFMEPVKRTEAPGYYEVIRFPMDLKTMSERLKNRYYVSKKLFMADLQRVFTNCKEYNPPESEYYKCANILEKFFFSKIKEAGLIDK

Key:
[1] = target: CHK2 K520R reintroduced into HCT116 cells (UniProt O96017); assay: cross-linking; 100 μl whole-cell lysate of HCT116 cells with 5 μl of 2.3% (v/v) glutaraldehyde, 37 °C, 5 min; western blot with antibody against CHK2
[2] = target: CHK2 wild type reintroduced into HCT116 cells (UniProt O96017); assay: as above
[3] = target: SIRT1 (human (endogenous in HEK293)) (UniProt Q96EB6); assay: co-IP; endogenous proteins; HEK293 cell lysates immunoprecipitated with control IgG, anti-SIRT1 or anti-CHK2 antibodies, 4 °C overnight, protein A/G sepharose; washed with 50 mM Tris pH 7.4, 1% Triton X-100, 0.5% NP-40, 150 mM NaCl
[4] = target: GST-SIRT1 (UniProt Q96EB6); assay: pull-down; GST pull-down in vitro; recombinant protein incubated with bacterially expressed GST fusion for 1 h at 30 °C; both purified
[5] = target: His-CHK2 (UniProt O96017); assay: co-IP; HEK293 cells co-transfected with Flag-CHK2 (WT or mutant) and His-CHK2, with or without 0.5 μM EX527 for 6 h; IP with anti-His, blot for Flag
[6] = target: CHK2 (human (endogenous in HEK293)) (UniProt O96017); assay: co-IP; Flag-tagged p300 or PCAF individually transfected into HEK293 cells; IP and western blot; which partner was precipitated is not told
[7] = target: CHK2 K520Q reintroduced into HCT116 cells (UniProt O96017); assay: cross-linking; 100 μl whole-cell lysate of HCT116 cells with 5 μl of 2.3% (v/v) glutaraldehyde, 37 °C, 5 min; western blot with antibody against CHK2
[8] = target: T1, SIRT1 (mouse embryonic fibroblasts) (mouse (endogenous in MEFs)) (UniProt Q923E4); assay: co-IP; endogenous proteins in mouse embryonic fibroblasts (Fig. S1A)
T1 sequence: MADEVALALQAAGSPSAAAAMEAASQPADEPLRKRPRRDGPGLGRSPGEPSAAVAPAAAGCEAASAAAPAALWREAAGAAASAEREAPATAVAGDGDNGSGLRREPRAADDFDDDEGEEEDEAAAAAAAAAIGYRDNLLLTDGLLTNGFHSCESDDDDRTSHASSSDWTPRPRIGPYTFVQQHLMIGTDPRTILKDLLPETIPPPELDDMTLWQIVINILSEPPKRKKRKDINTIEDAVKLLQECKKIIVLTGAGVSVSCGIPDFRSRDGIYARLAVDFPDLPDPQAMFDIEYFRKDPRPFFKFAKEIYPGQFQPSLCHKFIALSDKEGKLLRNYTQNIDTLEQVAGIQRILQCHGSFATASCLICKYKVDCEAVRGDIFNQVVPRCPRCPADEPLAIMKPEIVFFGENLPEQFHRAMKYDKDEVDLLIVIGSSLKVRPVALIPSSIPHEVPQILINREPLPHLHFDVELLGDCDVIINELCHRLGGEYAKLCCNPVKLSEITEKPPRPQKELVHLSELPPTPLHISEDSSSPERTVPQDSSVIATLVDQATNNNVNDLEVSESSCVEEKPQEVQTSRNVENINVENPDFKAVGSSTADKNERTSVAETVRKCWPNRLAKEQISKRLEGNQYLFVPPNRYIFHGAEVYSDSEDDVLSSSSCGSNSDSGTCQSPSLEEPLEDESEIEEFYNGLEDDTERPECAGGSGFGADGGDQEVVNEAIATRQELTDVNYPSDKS

Substance: CHK2 K520R reintroduced into HCT116 cells (from UniProt O96017 1-543)
binding [1]: binds

Substance: CHK2 wild type reintroduced into HCT116 cells (from UniProt O96017 1-543)
binding [2]: binds

Substance: CHK2 (from UniProt O96017 1-543)
binding [3]: binds

Substance: Recombinant CHK2 (from UniProt O96017 1-543)
binding [4]: binds

Substance: CHK2 (mouse embryonic fibroblasts) (from UniProt Q9Z265 1-546)
binding [8]: binds

Continued, values first:

binding [5]: binds
Substance: Flag-CHK2 K520Q (from UniProt O96017 1-543)

binding [5]: binds
Substance: Flag-K520R CHK2 (from UniProt O96017 1-543)

binding [6]: binds
Substance: Flag-tagged p300 (from UniProt Q09472 1-2414) (enzyme)

binding [7]: binds
Substance: CHK2 K520Q reintroduced into HCT116 cells (from UniProt O96017 1-543)

binding [5]: binds
Substance: Flag-WT CHK2 (from UniProt O96017 1-543)

binding [6]: binds
Substance: Flag-tagged PCAF (from UniProt Q92831 1-832) (enzyme)
